Reference: PubChem BioAssay AID493014 (National Center for Advancing Translational Sciences (NCATS), 2011)
Among all 340,000 compounds or so, about 170 (0.05%) were called active. The shares of active, inactive and inconclusive entries below differ from those in the screen. The call rests on the fitted dose curve; in most records, active means well fitted inhibition curve with a large enough effect in the signal ratio, with a control signal flat (not every such curve was filed as active); inconclusive means small, poorly fitted or top-dose-only effect, or effect the other way, or a change in a side signal; inactive means flat fitted curve, though single readings scatter; the % refers to the signal ratio. Potencies beside an inconclusive call are fits to weak or partial responses and may not hold up.
Potency means the concentration at half of the fitted maximal effect.

Test: qHTS Assay to Find Inhibitors of Chronic Active B-Cell Receptor Signaling;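 on activity change, negative = inhibition: plate controls were basal doxycycline-induced cells for no effect and cells given 10 µM MG132 for full effect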
Conditions: ABC-DLBCL IkBa-CBG/CBR reporter, luminescence ratio (green luciferase fused to IkBa over red control in TMD8 lymphoma cells), 4 h; activity change, negative = inhibition: at 46.1 µM (top of the series) unless noted
Method in brief: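 Doxycycline induced both beetle luciferases in TMD8 lymphoma cells; IKK-driven degradation limits the IkappaBalpha-fused green signal, while red luminescence normalises for cell number and nonspecific effects. Compounds tested up to 46 uM, 4 hrs.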
With `NC(=O)c1nn(-c2ccccc2)nc1NC(=O)CN1CCOCC1` the activity change, negative = inhibition was inconclusive: 6.03%. With `CC(C)Oc1ccc(S(=O)(=O)N2CCOCC2)cc1NC(=O)CCCSc1ccccc1` the Potency was inconclusive: 1.46 µM [rising, partial curve, poor fit]. For `O=C(Nc1ccc(F)c(S(=O)(=O)N2CCOCC2)c1)C1CCCCC1`, the activity change, negative = inhibition was inconclusive: -0.364%. For `O=C(NNC(=O)[C@@H]1CCCC[C@@H]1C(=O)O)Nc1ccccc1`, the activity change, negative = inhibition was inconclusive: 5.17%. With `O=C1Nc2ccc(Br)cc2/C1=C/c1ccc(C(=O)O)cc1` the Potency was inconclusive: 20 µM [falling, partial curve]. In the case of `CC(Sc1ccccc1)C(=O)Nc1ccccc1C(=O)N1CCOCC1` (configuration not stated), the activity change, negative = inhibition is reported as inconclusive: 2.01%. In the case of `O=S(=O)(c1cccc(-c2csc(-c3cccnc3)n2)c1)N1CCOCC1`, the activity change, negative = inhibition is reported as inconclusive: -5.52%. With `O=C(Nc1nccs1)c1ccccc1[N+](=O)[O-]` the activity change, negative = inhibition was inconclusive: -5.36%. With `COC(=O)c1[nH]c2ccc(C)cc2c1NC(=O)CN1CCc2cc(OC)c(OC)cc2C1` the activity change, negative = inhibition was inconclusive: -10.1%. For `O=C(c1ccc(CS(=O)Cc2ccccc2Cl)o1)N1CCN(c2cccc(Cl)c2)CC1` (configuration not stated), the Potency was inconclusive: 35.5 µM [falling, single point]. For `CC1=C(C#N)C(c2cccnc2)C2=C(CCCC2=O)N1` (configuration not stated), the activity change, negative = inhibition was inconclusive: 19.9%. In the case of `COc1ccc(-c2[nH]ncc2C=O)cc1OC`, the activity change, negative = inhibition is reported as inconclusive: -21.7%. With `Cc1ccc(NC(=O)CCC(=O)N2CCC(c3ccccc3)=N2)cc1S(=O)(=O)N1CCCCC1` the “activity change, negative = inhibition” value was inactive: 6.15%. For `COc1cccc(N(C(=O)c2cccs2)c2nc3ccccc3s2)c1`, the activity change, negative = inhibition was inconclusive: 18.1%. For `CSc1ncccc1C(=O)OCC(=O)Nc1ccc2c(c1)OCO2`, the Potency was inconclusive: 28.2 µM [falling, partial curve, poor fit]. For `O=C(O)C/C(=C\c1ccc2c(c1)OCO2)c1nc2ccccc2s1`, the Potency was inconclusive: 25.1 µM [falling, partial curve]. In the case of `COc1ccc(NC(=O)CSc2ccc(-c3ccccn3)nn2)cc1OC`, the activity change, negative = inhibition is reported as inconclusive: -24.1%. For `CCOc1ccc(C2C(=O)N(C3CCCCC3)CC(=O)N2C2CCCC2)cc1OC` (configuration not stated), the “activity change, negative = inhibition” value was inactive: -1.79%. For `O=C(O)c1ccc(N2C(=O)c3[nH]nc(-c4ccccc4)c3C2c2ccccc2)cc1` (configuration not stated), the activity change, negative = inhibition was inconclusive: 4.38%. With `O=C(c1cc(-c2cccc(O)c2)on1)N1CCCCC1` the Potency was inconclusive: 20.6 µM [falling, single point]. With `COc1cc(NC(=O)C(C)Oc2ccccc2)c(C(=O)O)cc1OC` (configuration not stated) the Potency was inconclusive: 29.1 µM [falling, single point]. For `Oc1ccccc1CNc1ccc(Br)cn1`, the activity change, negative = inhibition was inconclusive: -2.95%. In the case of `O=C(COCc1cc(-c2ccco2)on1)NC1CCCCC1`, the activity change, negative = inhibition is reported as inconclusive: -11.4%. For `CCOC(=O)c1[nH]c2cc(OC)c(OC)cc2c1NC(=O)CN1CCN(C)CC1`, the activity change, negative = inhibition was inconclusive: 6.64%. For `Cn1c(N2CCC(C(N)=O)CC2)nc2c1c(=O)n(Cc1ccc(Cl)cc1)c(=O)n2C`, the activity change, negative = inhibition was inconclusive: -5.06%. With `NC(=O)C1CCN(C(=O)Cn2cccc2C(=O)c2ccccc2)CC1` the activity change, negative = inhibition was inconclusive: 2.06%. For `CC(C)(C)c1cc(CN2CCCC(O)C2)c(O)c(C(C)(C)C)c1` (configuration not stated), the activity change, negative = inhibition was inconclusive: 5.56%. With `COc1cc(-c2c(-c3cccc(C)c3)oc3ccccc23)cc(OC)c1OC` the Potency was inconclusive: 3.55 µM [rising, single point]. With `CCCc1cc(C(=O)N2CCN(c3ccccc3C)CC2)cs1` the activity change, negative = inhibition was inconclusive: -2.74%. For `CCC(C)NCCOc1ccc(Br)cc1` (configuration not stated), the “activity change, negative = inhibition” value was inactive: 11.9%. In the case of `COc1ccccc1N1CCN(C(=O)COc2cccc3ccccc23)CC1`, the activity change, negative = inhibition is reported as inconclusive: -24.8%. With `CNC(=S)N(Cc1cc2cc(OC)c(OC)cc2[nH]c1=O)C1CCCC1` the Potency was inconclusive: 17.8 µM [falling, partial curve, poor fit]. With `CC(C)C(=O)Nc1ccc(-c2nc3ncccc3o2)cc1` the activity change, negative = inhibition was inconclusive: -5.63%. For `O=C(Nc1ccccc1)c1ccc(-c2ccccc2)s1`, the activity change, negative = inhibition was inconclusive: 250%. In the case of `CSCCC(NS(=O)(=O)c1ccccc1F)C(=O)NCC(C)(C)N1CCOCC1` (configuration not stated), the activity change, negative = inhibition is reported as inconclusive: 3.14%. With `CSCc1ccc(C(=O)NC(C)c2cnn(-c3ccccn3)c2C)o1` (configuration not stated) the “activity change, negative = inhibition” value was inactive: 5.94%. For `O=C(NCc1nnnn1-c1ccc(F)cc1)c1ccc([N+](=O)[O-])o1`, the activity change, negative = inhibition was inconclusive: -13.3%. In the case of `CC1(C)CCN2CCC(C)(C)c3c(O)ccc1c32`, the “activity change, negative = inhibition” value is reported as inactive: 1.25%. For `c1ccc(Cn2ccc(-c3cnc(-c4ccccc4)s3)n2)cc1`, the activity change, negative = inhibition was inconclusive: 18.8%. For `CC(=O)Nc1ccc(NC(=S)Nc2ccc(Br)cc2)cc1`, the activity change, negative = inhibition was inconclusive: 9.36%. With `CCOC(=O)N1CCN(C(=O)CC(C(=O)N2CCc3ccccc32)n2ccnc2)CC1` (configuration not stated) the activity change, negative = inhibition was inconclusive: 3.83%. With `CCOC(=O)c1c(C)[nH]c(C)c1C(=O)CSc1ncccn1` the Potency was inconclusive: 23.1 µM [falling, single point]. With `CSc1ncccc1C(=O)OCc1ccccc1Cl` the Potency was inconclusive: 35.5 µM [falling, single point]. In the case of `COc1ccc(NC(=O)N2CCCC(CNS(=O)(=O)c3cccs3)C2)c(C)c1` (configuration not stated), the activity change, negative = inhibition is reported as inconclusive: 7.42%. With `CCn1nc(C(=O)NCC(c2cccs2)N2CCOCC2)c2ccccc2c1=O` (configuration not stated) the activity change, negative = inhibition was inconclusive: 8.09%. In the case of `CC(C)CN1C(=O)c2ccc(NC(=O)c3ccccc3F)cc2C1=O`, the “activity change, negative = inhibition” value is reported as inactive: -18.6%. With `CC(C)C[C@@H](CO)N1CCN(Cc2cccc(C#N)c2)CCC1=O` the “activity change, negative = inhibition” value was inactive: -4.4%. For `O=C(CSC1=NCCS1)Nc1ccc(F)cc1`, the Potency was inconclusive: 25.1 µM [falling, partial curve, poor fit]. For `CSc1nc(N(C)NC(=O)c2ccc(F)cc2)c2ccccc2n1`, the Potency was inconclusive: 20.6 µM [falling, single point]. For `CC(C)c1cc(C(=O)OCC(=O)NC(=O)NCc2ccco2)c(O)c(C(C)C)c1`, the activity change, negative = inhibition was inconclusive: -2.05%. For `Fc1ccc(N2CCN(c3nc(CN4CCOCC4)nc4scc(-c5ccccc5)c34)CC2)cc1`, the “activity change, negative = inhibition” value was inactive: -0.64%. In the case of `COc1ccc(NN=Nc2nc3c([nH]2)c(=O)n(C)c(=O)n3C)cc1`, the activity change, negative = inhibition is reported as inconclusive: -152%.
